Values quoted from earlier work as cited in patent publication US12127976B2, “Eye-mountable therapeutic devices, and associated systems and methods” (Twenty Twenty Therapeutics LLC, priority 2018, dated 2024).
Counter-ions that a name gives are not always drawn. Some of these results come from one statement about several compounds together.

Conditions: after topical administration; formulated as salts

In the case of `CC(C)(C)NC[C@H](O)COc1nsnc1N1CCOCC1` [timolol maleate], the onset of action is given as ≤ 30 min.
